Assay results taken from patent publication US11248023B2 (NEURACLE SCIENCE CO., LTD., priority 2015, dated 2022).
Part of at least one peptide drawing is inferred or uncertain, most often the ends. Ends that are not written are not given here.

Legend:
GALR1 = biological target: T1, GALR1 (Homo sapiens, UniProt P47211); conditions: cited from earlier work
T1 sequence (P47211 1-349): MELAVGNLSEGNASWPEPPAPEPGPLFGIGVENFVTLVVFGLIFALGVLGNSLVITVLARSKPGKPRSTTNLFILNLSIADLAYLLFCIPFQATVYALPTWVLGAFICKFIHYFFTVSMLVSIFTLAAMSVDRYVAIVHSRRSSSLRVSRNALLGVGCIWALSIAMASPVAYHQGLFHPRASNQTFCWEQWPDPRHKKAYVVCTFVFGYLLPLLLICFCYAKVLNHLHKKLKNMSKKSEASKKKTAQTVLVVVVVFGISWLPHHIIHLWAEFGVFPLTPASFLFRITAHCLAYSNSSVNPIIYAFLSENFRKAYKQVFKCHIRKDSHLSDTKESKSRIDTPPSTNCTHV

GALR2 [1] = biological target: T2, GALR2 (Homo sapiens, UniProt O43603); conditions: cited from earlier work
T2 construct: expressed in transfected cells
T2 sequence (O43603 1-387): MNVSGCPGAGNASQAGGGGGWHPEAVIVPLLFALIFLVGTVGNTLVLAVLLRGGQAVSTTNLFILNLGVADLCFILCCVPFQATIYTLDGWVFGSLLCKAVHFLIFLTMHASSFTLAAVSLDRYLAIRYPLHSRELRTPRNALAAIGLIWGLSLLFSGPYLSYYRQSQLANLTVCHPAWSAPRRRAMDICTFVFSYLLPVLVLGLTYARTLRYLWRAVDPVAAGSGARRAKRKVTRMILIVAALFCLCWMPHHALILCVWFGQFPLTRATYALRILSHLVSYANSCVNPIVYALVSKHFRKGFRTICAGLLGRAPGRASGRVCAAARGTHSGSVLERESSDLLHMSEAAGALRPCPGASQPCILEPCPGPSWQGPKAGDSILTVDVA

GALR3 [2] = biological target: T3, GALR3 (Homo sapiens, UniProt O60755); conditions: cited from earlier work
T3 construct: expressed in transfected cells
T3 sequence (O60755 1-368): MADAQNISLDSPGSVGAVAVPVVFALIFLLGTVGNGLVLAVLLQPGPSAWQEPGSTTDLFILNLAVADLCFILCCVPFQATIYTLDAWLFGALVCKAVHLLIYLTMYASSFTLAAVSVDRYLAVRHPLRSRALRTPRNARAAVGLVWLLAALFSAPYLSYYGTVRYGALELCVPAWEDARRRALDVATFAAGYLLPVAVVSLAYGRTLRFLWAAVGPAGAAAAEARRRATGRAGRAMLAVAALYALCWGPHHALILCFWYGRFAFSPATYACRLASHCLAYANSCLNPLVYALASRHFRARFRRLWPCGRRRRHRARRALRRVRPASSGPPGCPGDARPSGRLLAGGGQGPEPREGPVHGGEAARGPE

GALR2 [3] = biological target: T2, GALR2; assay: SRE-luc assay in HEK293-Gqi cells expressing GALR2; format: cell-based; conditions: compared with spexin
GALR3 [4] = biological target: T3, GALR3; assay: SRE-luc assay in HEK293-Gqi cells expressing GALR3; format: cell-based; conditions: compared with spexin

Row | Compound | activity at GALR1 (GALR1) | activity at GALR2 (GALR2 [1]) | activity at GALR3 (GALR3 [2]) | potency toward GALR2 (GALR2 [3]) | potency toward GALR3 (GALR3 [4])
1 | CSCC[C@H](NC(=O)[C@H](C)NC(=O)[C@H](CCC(N)=O)NC(=O)[C@@H]1CCCN1C(=O)[C@@H](NC(=O)[C@H](Cc1c[nH]c2ccccc12)NC(=O)[C@@H](N)CC(N)=O)[C@@H](C)O)C(=O)N[C@@H](CC(C)C)C(=O)N[C@@H](Cc1ccc(O)cc1)C(=O)N[C@@H](CC(C)C)C(=O)N[C@@H](CCCCN)C(=O)NCC(=O)N[C@@H](C)C(=O)N[C@@H](CCC(N)=O)C(N)=O [spexin] | not at GALR1 | acts at | acts at |  | 
2 | NWTPNAALYLFGPQ-NH2 (C-terminus assumed) [Qu] |  |  |  | maintained its potency toward GALR2 at a level comparable to that of spexin | lost its potency toward GALR3
